Data from US9616047B2, “Inhibitors of beta-catenin in treatment of colorectal cancer” (Regents of the University of Minnesota, priority 2014, dated 2017).
Some entries share one result that the patent states for a list of compounds.

Tested on: β-catenin/Tcf-4 luciferase activity
Assay: β-catenin/Tcf-4 luciferase reporter assay (TOP-flash/FOP-flash) in HCT116
Type: cell-based
Excerpt: FIGS. 1A-C. HI-B1, HI-B5 and HI-B9 inhibit beta-catenin/Tcf-4 luciferase activity in colon cancer cell lines. (A) Chemical structures of three compounds. (B-C) Effects of HI-B1, HI-B5 and HI-B9 on the β-catenin/Tcf-4 luciferase activity in HCT116 (B) and HT29 (C) colon cancer cell lines. […] Colon cancer cells were co-transfected with reporter genes harboring the β-catenin/Tcf binding site (TOP-flash) or a mutant β-catenin/Tcf binding site (FOP-flash), respectively, and the Renilla gene. The luciferase activity was normalized to Renilla activity.
Transient transfection was performed using jetPEI and assays to detect firefly luciferase and Renilla activities according to the manufacturer's manual (Promega). Briefly, cells were seeded onto 10-cm plates and co-transfected with 400 ng of the Renilla luciferase internal control gene and 4 μg of the TOP-flash luciferase reporter construct containing three tandem Tcf consensus binding sites upstream of luciferase cDNA, or the FOPflash luciferase reporter construct, a plasmid with mutated Tcf binding sites. After 16 h of transfection, cells were trypsinized and seeded onto 48-well plates, and cells were treated with respective chemicals for 24 h. Luciferase and Renilla activities were measured using their substrates.

In the case of `CC1(C)CCC(C)(C)c2cc(C(=O)CC3(O)C(=O)Nc4ccc(F)cc43)ccc21` (stereo not shown) [HI-B9], the “concentration at which significant decreases in β-catenin/Tcf-4 luciferase activity were seen” value is reported as 10 to 20 µM.
